# Reference: patent US10563263B2, “Genetic polymorphisms associated with statin response and cardiovascular diseases, methods of detection and uses thereof” (CELERA CORPORATION, priority 2010, dated 2020)
# This continues a long series; more values of the same kind are listed elsewhere.
# System: CVD (CHD or stroke)
# Assay: CARE: SNP by pravastatin treatment interaction, logistic regression (synergy index), CVD endpoint
# Type: in vivo, human
# Description: CARE was a secondary prevention trial and WOSCOPS was a primary prevention trial.
# The CHD endpoint was defined in the analyses herein of CARE as a composite endpoint of fatal CHD, definite non-fatal MI, or revascularization, and was defined in the analyses herein of WOSCOPS as a composite endpoint of death from CHD, nonfatal MI, or revascularization. In both the CARE and WOSCOPS analyses herein, the CVD endpoint was defined as a composite endpoint of CHD or stroke. […] Revascularization, which can include percutaneous transluminal coronary angioplasty (PTCA), stent placement, and coronary artery bypass graft (CABG), are medical interventions that indicate the presence of CHD.
# Cohort and case-only study designs were used to identify SNPs associated with response to statin treatment.
# For each SNP, a logistic regression model having treatment status as the dependent variable and SNP as the independent predictor variable was performed, with terms for age, sex and race included in the model as covariates. The anti-log of the regression coefficient corresponding to the SNP is an estimate of the synergy index (SI) (Davis et al., “Imputing gene-treatment interactions when the genotype distribution is unknown using case-only and putative placebo analyses-a new method for the Genetics of Hypertension Associated Treatment (GenHAT) study”, Statistics in Medicine 23: (2004), pages 2413-2427). The SI is a ratio of odds ratios: for example in the CARE and WOSCOPS studies, the SI represents the factor by which the odds-ratio of statin treatment, compared with placebo, among major homozygous individuals is multiplied by in order to obtain the odds-ratio of treatment vs. placebo among heterozygous individuals; and multiplied by a second time to obtain the odds-ratio of treatment vs. placebo in minor homozygous individuals. […] In a randomized clinical trial, genotype and treatment are independent by design.
compound,measurement,setting,value
"CC[C@H](C)C(=O)O[C@H]1C[C@H](O)C=C2C=C[C@H](C)[C@H](CC[C@@H](O)C[C@@H](O)CC(=O)O)[C@H]21 [Pravastatin, pravastatin]",OR,"rs1868616 allele G, ADD model, Imputed",0.572
same,OR,"rs1874313 allele A, DOM model, Imputed",0.578
same,OR,"rs1884902 allele C, REC model, Imputed",2.217
same,OR,"rs1913201 allele G, ADD model, Imputed",0.692
same,OR,"rs1913201 allele G, DOM model, Imputed",0.589
same,OR,"rs1944279 allele A, ADD model, Imputed",1.579
same,OR,"rs1987179 allele T, DOM model, Imputed",0.701
same,OR,"rs1990023 allele T, DOM model, Imputed",0.548
same,OR,"rs2016194 allele G, DOM model, Imputed",0.56
same,OR,"rs2024789 allele C, ADD model, Imputed",0.675
same,OR,"rs2024902 allele A, ADD model, Imputed",2.07
same,OR,"rs2024902 allele A, DOM model, Imputed",2.266
same,OR,"rs2025107 allele A, ADD model, Imputed",2.008
same,OR,"rs2025107 allele A, DOM model, Imputed",2.219
same,OR,"rs2025108 allele T, ADD model, Imputed",2.008
same,OR,"rs2025108 allele T, DOM model, Imputed",2.219
same,OR,"rs2062448 allele T, ADD model, Imputed",0.545
same,OR,"rs2062448 allele T, DOM model, Imputed",0.517
same,OR,"rs2063591 allele C, ADD model, Imputed",0.73
same,OR,"rs2063591 allele C, DOM model, Imputed",0.56
same,OR,"rs2065604 allele C, DOM model, Imputed",0.529
same,OR,"rs2066238 allele T, DOM model, Imputed",0.521
same,OR,"rs2068051 allele G, ADD model, Imputed",0.612
same,OR,"rs2095586 allele A, DOM model, Imputed",1.786
same,OR,"rs2108426 allele C, DOM model, Imputed",0.56
same,OR,"rs2110664 allele A, DOM model, Imputed",1.503
same,OR,"rs2132242 allele A, DOM model, Imputed",0.585
same,OR,"rs2151644 allele T, DOM model, Imputed",0.527
same,OR,"rs2158958 allele A, DOM model, Imputed",0.56
same,OR,"rs2158961 allele G, DOM model, Imputed",0.564
same,OR,"rs2164099 allele G, ADD model, Imputed",1.561
same,OR,"rs2173254 allele G, REC model, Imputed",0.382
same,OR,"rs2188079 allele C, ADD model, Imputed",1.482
same,OR,"rs2190304 allele G, REC model, Imputed",0.439
same,OR,"rs2190597 allele T, DOM model, Imputed",0.559
same,OR,"rs2190598 allele T, DOM model, Imputed",0.56
same,OR,"rs2190600 allele A, DOM model, Imputed",0.561
same,OR,"rs2218084 allele T, REC model, Imputed",3.657
same,OR,"rs2243860 allele A, REC model, Imputed",2.168
same,OR,"rs2246564 allele T, DOM model, Imputed",0.529
same,OR,"rs2248236 allele C, DOM model, Imputed",0.718
same,OR,"rs2250340 allele T, DOM model, Imputed",0.514
same,OR,"rs2257192 allele G, DOM model, Imputed",0.529
same,OR,"rs2270584 allele A, DOM model, Imputed",0.567
same,OR,"rs2270586 allele A, DOM model, Imputed",0.564
same,OR,"rs2270589 allele A, ADD model, Imputed",0.711
same,OR,"rs2270589 allele A, DOM model, Imputed",0.552
same,OR,"rs2296889 allele C, DOM model, Imputed",1.638
same,OR,"rs2301346 allele C, ADD model, Imputed",1.573
same,OR,"rs2301346 allele C, DOM model, Imputed",1.763
same,OR,"rs2327929 allele G, REC model, Imputed",2.122
same,OR,"rs2357486 allele C, REC model, Imputed",2.717
same,OR,"rs2373793 allele G, DOM model, Imputed",1.534
same,OR,"rs2377622 allele T, REC model, Imputed",0.437
same,OR,"rs2383903 allele G, DOM model, Imputed",0.614
same,OR,"rs2389866 allele C, DOM model, Imputed",0.697
same,OR,"rs2389869 allele C, DOM model, Imputed",0.697
same,OR,"rs2418541 allele A, DOM model, Imputed",0.551
same,OR,"rs2418542 allele A, DOM model, Imputed",0.551
same,OR,"rs2418548 allele C, DOM model, Imputed",0.572
same,OR,"rs2476976 allele C, DOM model, Imputed",1.728
same,OR,"rs2483639 allele A, DOM model, Imputed",0.529
same,OR,"rs2483640 allele A, DOM model, Imputed",0.529
same,OR,"rs2544780 allele T, REC model, Imputed",1.881
same,OR,"rs2586458 allele T, DOM model, Imputed",0.507
same,OR,"rs2593272 allele G, ADD model, Imputed",0.712
same,OR,"rs2593273 allele T, ADD model, Imputed",0.699
same,OR,"rs2622499 allele G, DOM model, Imputed",0.726
same,OR,"rs2656822 allele T, ADD model, Imputed",0.712
same,OR,"rs2656823 allele G, ADD model, Imputed",0.712
same,OR,"rs2656825 allele T, ADD model, Imputed",0.702
same,OR,"rs2764766 allele C, REC model, Imputed",1.803
same,OR,"rs2793101 allele T, ADD model, Imputed",0.506
same,OR,"rs2793101 allele T, DOM model, Imputed",0.501
same,OR,"rs2795871 allele A, ADD model, Imputed",0.578
same,OR,"rs2795886 allele A, ADD model, Imputed",0.507
same,OR,"rs2795886 allele A, DOM model, Imputed",0.517
same,OR,"rs2870464 allele G, DOM model, Imputed",1.534
same,OR,"rs2875528 allele T, DOM model, Imputed",1.705
same,OR,"rs4324417 allele A1=T, model DOM, Imputed, pravastatin vs placebo",1.724
same,OR,"rs4328619 allele A1=G, model DOM, Genotyped, pravastatin vs placebo",0.6851
same,OR,"rs4338909 allele A1=T, model ADD, Imputed, pravastatin vs placebo",1.366
same,OR,"rs4370878 allele A1=G, model DOM, Imputed, pravastatin vs placebo",1.625
same,OR,"rs4379434 allele A1=T, model DOM, Genotyped, pravastatin vs placebo",1.624
same,OR,"rs4416407 allele A1=T, model DOM, Imputed, pravastatin vs placebo",1.831
same,OR,"rs4417899 allele A1=C, model REC, Imputed, pravastatin vs placebo",0.544
same,OR,"rs4442732 allele A1=A, model ADD, Imputed, pravastatin vs placebo",0.6071
same,OR,"rs4444612 allele A1=G, model ADD, Imputed, pravastatin vs placebo",1.36
same,OR,"rs4444612 allele A1=G, model REC, Imputed, pravastatin vs placebo",1.891
same,OR,"rs4450660 allele A1=C, model DOM, Imputed, pravastatin vs placebo",1.503
same,OR,"rs4509702 allele A1=C, model DOM, Imputed, pravastatin vs placebo",1.625
same,OR,"rs4533145 allele A1=T, model DOM, Imputed, pravastatin vs placebo",0.4949
same,OR,"rs4557006 allele A1=A, model DOM, Imputed, pravastatin vs placebo",0.6286
same,OR,"rs4570530 allele A1=C, model DOM, Imputed, pravastatin vs placebo",1.625
same,OR,"rs4615971 allele A1=C, model DOM, Imputed, pravastatin vs placebo",1.614
same,OR,"rs4628119 allele A1=A, model DOM, Imputed, pravastatin vs placebo",0.6745
same,OR,"rs4664443 allele A1=G, model ADD, Imputed, pravastatin vs placebo",0.7174
same,OR,"rs4688259 allele A1=T, model DOM, Imputed, pravastatin vs placebo",1.832
same,OR,"rs4688632 allele A1=G, model REC, Imputed, pravastatin vs placebo",0.5583
same,OR,"rs4695284 allele A1=A, model ADD, Imputed, pravastatin vs placebo",2.105
same,OR,"rs4700302 allele A1=A, model ADD, Imputed, pravastatin vs placebo",0.5167
same,OR,"rs4702720 allele A1=A, model ADD, Imputed, pravastatin vs placebo",0.6094
same,OR,"rs4702720 allele A1=A, model DOM, Imputed, pravastatin vs placebo",0.5402
